Values quoted from earlier work in patent US20150099003A1, “Topiramate Sustained-Release Pharmaceutical Composition, Method for Preparing Same, and Uses Thereof” (Institute of Pharmacology and Toxicology Academy of …, priority 2012, published 2015).
The name of at least one read-out is uncertain.

Details: health volunteer, oral, 400 mg; cited from earlier work

## CC1(C)O[C@@H]2[C@@H](CO[C@@]3(COS(N)(=O)=O)OC(C)(C)O[C@@H]23)O1 [Topiramate, 2,3,4,5-bis-O-(1-methylethylene)-β-D-fructopyranose sulfamate]
  Time to reach average plasma peak concentration (Cmax): ≤ 2 h
